According to patent US5691310A, “Methods of treatment using proANF peptides” (priority 1995, dated 1997):
At least one peptide structure holds a part that was inferred or is arguable (an end, a ring closure or a residue).

Columns and labels:
porcine aorta = test: vasodilation of porcine aortic strips preconstricted with 0.3 micromolar phenylephrine; parameters: species or system pig; conditions: associated with vasodilation of porcine aorta
Procedure: 30 Kg pigs are sacrificed, and aortic strips are harvested. The strips are attached to F-60 transducer (Narco-BioSystems, Houston, Tex.) and attached to a physiography (Narco-BioSystems) while being submerged in a muscle tissue bath comprising a Krebs Ringer solution at 37° C., with 95% 02 -5% CO2, bubbled through the bath. Percentage vasodilation is measured versus time (as reported in FIG. 1) after preconstriction with 0.3 micromolar phenylephrine.

[1] = system: particulate guanylate cyclase; test: cyclic GMP / particulate guanylate cyclase activation in cultured smooth muscle cells and porcine aorta; assay type: cell-based; conditions: cultured smooth muscle cells
Munich-Wistar rats = test: rat clearance model (diuresis and salt excretion); assay type: in vivo
Procedure: The same three peptides and ANF from Example I are tested using the rat clearance model. Six control rats and six experimental Munich-Wistar rats, each weighing 150-200 grams, are used for each peptide, with catheters being placed in both jugular veins and in the femoral artery. The ureters are cannulated for simultaneous urine collections with femoral artery blood collections.
After inserting the catheters, a stabilization of one hour is allowed. A 10 μg/kg bolus of each of the respective human sequences of the peptides is given via the jugular vein to six experimental rats followed by a sustaining infusion of 0.1 μg/kg/min for 60 minutes. Blood and urine samples are collected at 20 minute intervals during this 60 minute infusion. In both the control and experimental animals, hematocrits and plasma sodium values remained at the same levels pre- and post-infusion while blood pressure decreased with each of these peptides (see Attachment B).

[2] = system: particulate guanylate cyclase; test: particulate guanylate cyclase activity in the kidney; assay type: biochemical; conditions: 1 μM; whole kidney homogenates, renal cortical and medullary membranes, isolated distal nephron
healthy human subjects = test: infusion into healthy human subjects; assay type: in vivo; conditions: healthy humans
Procedure: Infusion of these peptides into healthy human subjects was performed as follows: Human pro-ANF 1-30, pro-ANF 31-67, and pro-ANF 79-98, and hANF (i.e., pro-ANF […], were synthesized by Peninsula Laboratories (Belmont, Calif.). High pressure liquid chromatography (HPLC) analysis was performed on a sample of each of the four peptides to ensure purity. The peptides were dissolved in a sterile 0.9% saline solution to a concentration of 100 μg/ml and dispensed in 2 and 5 ml aliquots into sealed sterile vials. At the time of dispensing, randomly selected vials were tested for pyrogens and sterility. Prior to labeling the vials, the actual peptide content of the dispensed solution were determined by direct radioimmunoassay to account for any possible absorption of the respective peptides to the walls of the vials. All vials were then stored at -80° C. until thawed for individual study.
Normal healthy subjects were chosen on the basis of age (between 20 and 50 years), physical examination and biochemical screenings. The subjects consumed their normal diets prior to testing. The subjects fasted overnight and were tested in the morning in the seated position. Intravenous catheters were placed bilaterally for the administration of pro-hANF 1-30, pro-hANF 31-67, pro-hANF 79-98 and hANF [pro-hANF 99-126] and for blood sampling. After completion of a 45-minute equilibration period, there were three 60-minute phases of the study: baseline, experimental infusion (60 minutes) and recovery (3 hours). The baseline phase consisted of two 30 minute urine collection periods, the experimental phase consisted of three 20 minute urine and plasma collection periods, and the recovery phase consisted of two 30 minute urine and plasma collection periods each hour for three hours post-infusion. Urine output was replaced on a milliliter per milliliter basis throughout the study by administering oral water or orange juice. Urine samples were obtained by voiding at the designated collection periods.
The 36 subjects were divided into 6 groups. One group (i.e., the control group) received a placebo infusion of 0.9% sodium chloride during the experimental infusion phase. […] The four remaining groups of six subjects each received human pro-hANF 1-30, pro-hANF 31-67, pro-hANF 79-98 and hANF. The four groups received the peptides by continuous infusion at the rate of 0.1 μg/kg per minute. The volume administered per hour during the experimental infusion phase was 10 ml for all four peptides and the placebo. All infusions were given by a constant-rate infusion pump, with the final concentrations of prohANFs adjusted for the subjects' body weight. The subjects heart rate and cuff blood pressure were taken at 5 minute intervals throughout the study. The excreted urine was analyzed for sodium concentration.

[3] = system: human subjects with class II New York Heart Association congestive heart failure; test: infusion into human subjects with congestive heart failure; assay type: in vivo
Procedure: Human proANF's 1-30, 31-67, 79-98, and 99-126 (i.e., ANF) were infused into human subjects with class II New York Heart Association congestive heart failure. An identical protocol to that used in example V where these peptides were infused into healthy human subjects was utilized. (See Attachment C for a detailed description of this protocol). The human subjects with congestive heart failure received an identical dose (0.1 μg/kg body wt/minute for 60 minutes) that the healthy human subjects received.

[4] = system: prostaglandin E2 (PGE2) synthesis; test: prostaglandin E2 synthesis
[5] = system: renal medullary Na+-K+-ATPase; test: inhibition of renal medullary Na+-K+-ATPase activity; assay type: biochemical; conditions: 10^-11 M

## CC[C@H](C)[C@@H]1NC(=O)[C@H](CCCNC(=N)N)NC(=O)[C@H](CC(=O)O)NC(=O)[C@H](CCSC)NC(=O)[C@H](CCCNC(=N)N)NC(=O)CNC(=O)CNC(=O)[C@H](Cc2ccccc2)NC(=O)[C@@H](NC(=O)[C@H](CO)NC(=O)[C@H](CO)NC(=O)[C@H](CCCNC(=N)N)NC(=O)[C@H](CCCNC(=N)N)NC(=O)[C@H](CC(C)C)NC(=O)[C@@H](N)CO)CSSC[C@@H](C(=O)N[C@@H](CC(N)=O)C(=O)N[C@@H](CO)C(=O)N[C@@H](Cc2ccccc2)C(=O)N[C@@H](CCCNC(=N)N)C(=O)N[C@@H](Cc2ccc(O)cc2)C(=O)O)NC(=O)CNC(=O)[C@H](CC(C)C)NC(=O)CNC(=O)[C@H](CO)NC(=O)[C@H](CCC(N)=O)NC(=O)[C@H](C)NC(=O)CNC1=O [ANF, reference compound]
Porcine aorta
  increase in cyclic GMP levels over baseline levels: four-to-five
[1]
  cyclic GMP levels: increase cyclic GMP levels
Munich-Wistar rats; period A, control period (before peptide)
  UNa V, urinary sodium excretion rate: 71.77 ± 23.08 μeq-min^-1 -g kidney wt^-1
Munich-Wistar rats; period B, 1st 60min experimental period, 10 μg/kg bolus then 0.1 μg/kg/min
  UNa V, urinary sodium excretion rate: 1,526.27 ± 796.50 μeq-min^-1 -g kidney wt^-1
Munich-Wistar rats; period C, 2nd 60min experimental period
  UNa V, urinary sodium excretion rate: 838.61 ± 222.68 μeq-min^-1 -g kidney wt^-1
[2]
  particulate guanylate cyclase activity: enhance particulate guanylate cyclase
Healthy human subjects
  duration of sodium excreting effects: ≤ 30 min
  increase of sodium excretion: 3- to 11 fold
  increase of urine flow: 4- to 11 fold
Healthy human subjects; 100 ng/kg body wt per minute for 1 hour i.v.
  urine volume / urine flow (in words): increase in urine volume
Healthy human subjects; 100 ng/kg body wt per minute for 60 minutes
  sodium excretion compared to baseline (in words): significantly (P<0.05) increased sodium excretion
Healthy human subjects; 100 ng/kg/min i.v. for 60 minutes
  systolic and diastolic blood pressures: decreasing systolic and diastolic blood pressures
[3]; congestive heart failure patients
  diuretic properties (in words): blunted
[3]; congestive heart failure subjects, time not stated
  increase of urine flow: 2 fold
[3]; human subjects with congestive heart failure
  increase of sodium excretion: 1 fold
[4]
  prostaglandin E2 (PGE2) synthesis: no significant effect on PGE2 synthesis
[5]
  inhibition of renal medullary Na+-K+-ATPase activity: did not significantly inhibit Na+-K+-ATPase
